These are yes or no findings as the source states them, for the method shown. Binding seen in cells or lysates may run through a third protein. These calls come from enrichment with a bait or labelling near it, and not all partners need be listed.

Chains of the proteins cited; added tags and fusions are not shown.
UniProt O08539: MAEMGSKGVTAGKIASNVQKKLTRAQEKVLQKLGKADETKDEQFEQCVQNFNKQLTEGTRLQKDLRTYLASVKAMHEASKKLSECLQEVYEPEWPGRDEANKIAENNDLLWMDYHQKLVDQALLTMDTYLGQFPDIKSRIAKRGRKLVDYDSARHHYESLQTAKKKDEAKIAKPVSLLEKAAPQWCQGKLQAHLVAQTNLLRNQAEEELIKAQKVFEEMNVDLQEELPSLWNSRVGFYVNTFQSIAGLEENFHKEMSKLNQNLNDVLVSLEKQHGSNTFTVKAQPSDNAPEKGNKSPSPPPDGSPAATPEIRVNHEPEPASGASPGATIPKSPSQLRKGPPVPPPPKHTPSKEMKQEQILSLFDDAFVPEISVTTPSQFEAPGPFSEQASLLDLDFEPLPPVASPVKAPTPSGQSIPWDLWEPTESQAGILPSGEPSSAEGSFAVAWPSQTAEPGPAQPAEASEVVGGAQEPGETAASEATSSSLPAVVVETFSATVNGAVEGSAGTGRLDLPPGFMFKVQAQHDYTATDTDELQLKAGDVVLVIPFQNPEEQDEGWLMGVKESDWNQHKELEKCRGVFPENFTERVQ

Our source for the binding values is publication doi:10.1101/437228.

This experiment concerns the target Bin1-HHStag (mouse BIN1 with a twin tag inserted in exon 19, all isoforms tagged) (mouse) (UniProt O08539). The experiment is described as follows: affinity purification with mass spectrometry.

B1: Plp1 (protein, UniProt P60202 1-277)
chain: MGLLECCARCLVGAPFASLVATGLCFFGVALFCGCGHEALTGTEKLIETYFSKNYQDYEYLINVIHAFQYVIYGTASFFFLYGALLLAEGFYTTGAVRQIFGDYKTTICGKGLSATVTGGQKGRGSRGQHQAHSLERVCHCLGKWLGHPDKFVGITYALTVVWLLVFACSAVPVYIYFNTWTTCQSIAFPSKTSASIGSLCADARMYGVLPWNAFPGKVCGSNLLSICKTAEFQMTFHLFIAAFVGAAATLVSLLTFMIAATYNFAVLKLMGRGTKF
In the case of B1, the binding result was “binds”.

B2: Mog (protein, UniProt Q61885 29-246)
chain: GQFRVIGPGYPIRALVGDEAELPCRISPGKNATGMEVGWYRSPFSRVVHLYRNGKDQDAEQAPEYRGRTELLKETISEGKVTLRIQNVRFSDEGGYTCFFRDHSYQEEAAMELKVEDPFYWVNPGVLTLIALVPTILLQVPVGLVFLFLQHRLRGKLRAEVENLHRTFDPHFLRVPCWKITLFVIVPVLGPLVALIICYNWLHRRLAGQFLEELRNPF
Regarding B2, the binding result was “binds”.
